The other results are listed elsewhere or left out. Repeats in this data set agree poorly, so a single value says little.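 HEK293T cells were given each compound shortly before transfection with a reporter in which red mCherry is followed by the SARS-CoV-2 frameshift element and then GFP in the −1 frame, so GFP appears only after frameshifting.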
tested on: HEK293T; assay: percent viability (nuclei count) relative to control; higher = more viable cells; conditions: 10 µM; 24 h

Compound | percent viability
CC(C)OC(=O)CCC/C=C\C[C@@H]1[C@@H](/C=C/C(F)(F)COc2ccccc2)[C@H](O)C[C@@H]1O [Tafluprost] | 229%
CCOC(=O)C1=C[C@]2(CC)CCCN3CCc4c(n1c1ccccc41)[C@@H]32 [vinpocetine] | 84.1%
CC1=C(CC(=O)O)c2cc(F)ccc2/C1=C\c1ccc([S+](C)[O-])cc1 (stereo not drawn) [Sulindac] | 235%
N[C@@H](CO)C(=O)O [serine] | 171%
CO[C@H]1C[C@H](O[C@@H]2/C(C)=C/C[C@@H]3C[C@@H](C[C@]4(CC[C@H](C)[C@@H](C5CCCCC5)O4)O3)OC(=O)[C@@H]3C=C(C)/C(=N/O)[C@H]4OC/C(=C\C=C\[C@@H]2C)[C@]43O)O[C@@H](C)[C@@H]1O [selamectin] | 70.4%
O=C(NCCNCC(O)COc1ccc(O)cc1)N1CCOCC1 (stereo not drawn) [Xamoterol hemifumarate] | 236%
CO[C@@]12[C@H](COC(N)=O)C3=C(C(=O)C(C)=C(N)C3=O)N1C[C@@H]1N[C@@H]12 | 165%
CCC1=C(C)CN(C(=O)NCCc2ccc(S(=O)(=O)NC(=O)N[C@H]3CC[C@H](C)CC3)cc2)C1=O | 132%
CCC=CCC=CCC=CCC=CCC=CCC=CCCC(=O)O | 50.3%
COC(=O)C1=C(C)NC(C)=C(C(=O)OC/C=C/c2ccccc2)C1c1cccc([N+](=O)[O-])c1 (stereo not drawn) [pranidipine] | 216%
CCCCC(CC)COC(=O)c1ccccc1O (stereo not drawn) | 126%
S=c1[nH]cnc2nc[nH]c12 | 144%
Clc1ccc(C(Cn2ccnc2)OCc2c(Cl)cccc2Cl)c(Cl)c1 (stereo not drawn) [isoconazole] | 207%

Part of the list above in order of number of heavy atoms, falling.
Compound | percent viability
CCC1=C(C)CN(C(=O)NCCc2ccc(S(=O)(=O)NC(=O)N[C@H]3CC[C@H](C)CC3)cc2)C1=O | 132%
CCC=CCC=CCC=CCC=CCC=CCC=CCCC(=O)O | 50.3%
N[C@@H](CO)C(=O)O [serine] | 171%

Reference: the supplement of paper PMC8256030
